This assay addresses human EphA5 protein (human) (UniProt P54756). In words: ELISA with decreasing amounts of target protein, read as OD. On the technique in general: ELISA stands for enzyme-linked immunosorbent assay.

Chains of the proteins cited; added tags and fusions are not shown. Residues count along the entry.
UniProt P54756, residues 25-573: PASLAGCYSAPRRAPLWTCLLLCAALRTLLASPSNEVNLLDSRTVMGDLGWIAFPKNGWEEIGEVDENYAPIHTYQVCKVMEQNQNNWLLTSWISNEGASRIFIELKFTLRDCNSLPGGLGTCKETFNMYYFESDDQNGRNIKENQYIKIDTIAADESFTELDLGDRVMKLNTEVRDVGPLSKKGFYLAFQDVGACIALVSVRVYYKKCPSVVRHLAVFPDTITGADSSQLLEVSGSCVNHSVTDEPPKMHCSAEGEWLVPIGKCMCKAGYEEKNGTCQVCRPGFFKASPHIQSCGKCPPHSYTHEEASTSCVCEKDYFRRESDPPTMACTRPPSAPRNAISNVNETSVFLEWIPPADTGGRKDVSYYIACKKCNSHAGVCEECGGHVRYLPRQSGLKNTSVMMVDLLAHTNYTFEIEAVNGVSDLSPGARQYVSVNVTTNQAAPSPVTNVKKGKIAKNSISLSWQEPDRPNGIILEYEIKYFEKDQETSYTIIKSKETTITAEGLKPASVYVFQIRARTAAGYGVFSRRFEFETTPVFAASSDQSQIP

These are yes or no findings as the source states them, for the method shown. Some results given as binding are weak or reduced against the parent protein; the word gives no strength.

B1: 11C12 monoclonal anti-EphA5 antibody (antibody, mouse IgG1, V domains shown)
VH: EVTLKESGGGLVQPGGSRKLSCAASGFTFSTFGIHWVRQAPEKGLEWVAYISGASTTIYYADTVKGRFTISRDNPKNTLFLQMTSLRSEDTAMYYCARYGTSFPYGLDYWGQGTSVTVSS
VL: DIVMTQSPGSLAVSLGQRATISCKASQSVDYDGDSYMNWYQQKPGQPPKLLIYGASNLESGIPARFSGSGSGTDFTLNIHPVEEEDAASYYCQQSNEDPFTFGSGTKLEIK
notes: Murine IgG1 monoclonal antibody from a hybridoma; also called monoclonal antibody 11C12; 11C12 antibody
As to B1, the binding result was “binds”.

The values above are taken from US20140377288A1 (University of Texas, published 2014).
